This is one part of the list. These are further read-outs of the screen, such as a control signal, another cell line or another target. No call is given for them. Most of these compounds were active or inconclusive in the main read-out, so they are no random draw. Words in brackets tell the shape of the fitted curve; partial curves, single points and poor fits give uncertain potencies.
Assay: qHTS Assay for Lipid Storage Modulators in Drosophila S3 Cells;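 on cell number change: cells counted by Cell Tracker Red CMTPX staining in the red channel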
Details: BODIPY lipid droplet fluorescence, 18-24 h; for cell number change: measured here: cell count max response, cells fed with added oleic acid
In short: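 Drosophila S3 cells loaded with oleic acid (400 uM, as added) and compounds at several concentrations; lipid droplets imaged by 488-nm laser-scanning cytometry, 500–530 nm intensity and object ratio to cell channel. Percent activity normalized to 20 uM Triacsin C.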

[1] = measured here: cell number channel AC50, cells fed with added oleic acid
[2] = measured here: lipid fluorescence (Fed channel) AC50, cells fed with added oleic acid

SMILES	cell number change [%]	AC50 [1]	AC50 [2]
CNc1ccc(Oc2nc([N+](=O)[O-])nn2C)cc1	9.04	6.51 µM [rising, single point]	
Cc1ccccc1Nc1nc(N)nc(COC(=O)c2ccccc2)n1	3.98		20.6 µM [rising, single point]
O=C(c1cc(COc2ccc(F)cc2Cl)on1)N1CCC(c2ccncc2)CC1	-44.2	18.4 µM [falling, single point]	29.1 µM [falling, single point]
Cc1ccc(CNC(=O)c2ccc(N3CCC4(CC3)CC(c3ccccc3)=NO4)c(NC(=O)c3cccc(C)c3)c2)cc1	12.8		29.1 µM [rising, single point]
CC1=CCC(C(=O)O)(C(=O)N/N=C/c2cccs2)C(c2ccc(Cl)cc2)C1 (centres undefined)	-22.5		
COc1cccc(NC(=O)c2nn(C34CC5CC(CC(C5)C3)C4)cc2[N+](=O)[O-])c1	-16.7		3.26 µM [falling, single point]
COc1cccc(-c2nc3ccc(C(=O)N4CCCC(O)C4)cc3o2)c1 (centres undefined)	1.14		0.82 µM [falling, full curve, poor fit]
O=C(OCn1ncc(Cl)c(Cl)c1=O)c1ccccc1Cl	-64.3	14.6 µM [falling, partial curve]	10.3 µM [falling, partial curve]
CCOc1ccc2nc(C)cc(C(=O)O)c2c1	-27.9		
COc1ccccc1Nc1nc(NCc2ccco2)c2ccccc2n1	-1.64	0.00517 µM [rising, full curve, poor fit]	
COc1ccc(OC)c(-c2nn(-c3ccccc3)cc2C(=O)N2CCc3ccccc3C2)c1	9.27		6.51 µM [falling, single point]
CC(C)(CN1CCCC1)NS(=O)(=O)c1ccc(Cl)cc1	19		
Cc1cc(Cl)ccc1C(=O)C1CCCN(C(=O)c2cnn(C(C)C)c2)C1 (centres undefined)	-24.8		
CCOC(=O)c1c(NC(=O)/C=C\C(=O)O)sc(C)c1-c1ccccc1	92.7	13 µM [rising, partial curve]	23.1 µM [rising, partial curve]
O=C(NCCc1cccc(C(F)(F)F)c1)C1CCC(=O)N(C2CC2)C1 (centres undefined)	14.7		1.84 µM [rising, partial curve, poor fit]
CC1CC(C)CN(C2CCN(Cc3cccnc3)CC2)C1 (centres undefined)	8.6		1.64 µM [falling, partial curve]
COc1ccc(OC)c(S(=O)(=O)N(C)CC(=O)N2CCN(c3ccccc3)CC2)c1	-21.2		1.3 µM [falling, single point]
N/C(Cc1ccc([N+](=O)[O-])cc1)=N\OC(=O)c1cccc(Br)c1	-51.7	1.03 µM [falling, full curve]	
CCCn1c(SCC(=O)Nc2cccc(S(=O)(=O)NC3=NCCCCC3)c2)nc2ccccc2c1=O	-34.7	1.64 µM [falling, full curve, poor fit]	
COc1ccc2[nH]c(C)c(CN3CCC(C)CC3)c(=O)c2c1	38.2	32.6 µM [rising, single point]	

Three of the compounds above, as labelled records.
COc1cccc(-c2nc3ccc(C(=O)N4CCCC(O)C4)cc3o2)c1 (centres undefined)
  cell number change [%]: 1.14
  AC50 [2]: 0.82 µM [falling, full curve, poor fit]
O=C(OCn1ncc(Cl)c(Cl)c1=O)c1ccccc1Cl
  cell number change [%]: -64.3
  AC50 [1]: 14.6 µM [falling, partial curve]
  AC50 [2]: 10.3 µM [falling, partial curve]
CCOC(=O)c1c(NC(=O)/C=C\C(=O)O)sc(C)c1-c1ccccc1
  cell number change [%]: 92.7
  AC50 [1]: 13 µM [rising, partial curve]
  AC50 [2]: 23.1 µM [rising, partial curve]

Following part

SMILES	cell number change [%]	AC50 [1]	AC50 [2]
Cc1ccc(NC(=O)CN2C(=O)c3ccccc3C2=O)cc1	-3.81		29.1 µM [rising, single point]
Oc1ccccc1C1=NN(c2ccccc2)C(c2ccccc2)C1 (centres undefined)			8.2 µM [falling, single point]
Cc1noc(C)c1CSCC(=O)N(C)CC(=O)Nc1ccc(Cl)c(Cl)c1		1.64 µM [rising, partial curve]	
C=CCNC(=O)c1ccc(OC)cc1	38.2	0.82 µM [falling, single point]	
O=C(O)C1CC(=O)N(CCc2ccccc2)C1 (centres undefined)	-20.8		0.116 µM [falling, full curve, poor fit]
N#CCC(=O)Nc1ccc(C(=O)NCc2ccccn2)cc1	16.7		
O=C(OCc1nc2ccccc2s1)c1cccs1	-24.9	0.326 µM [falling, full curve, poor fit]	0.58 µM [rising, single point]
Cc1ccc(C)c(CSC2=NCCN2C(=O)Cc2ccc([N+](=O)[O-])cc2)c1	0.219		3.26 µM [rising, partial curve]
COc1ccc(OC)c(C2C(C(=O)c3cccs3)=C(O)C(=O)N2CCN(C)C)c1 (centres undefined)	15.7		0.13 µM [falling, full curve, poor fit]
CCOC(=O)CSc1nc2cc(C(=O)N3CCC(C(N)=O)CC3)ccc2c(=O)n1-c1ccccc1		0.58 µM [falling, partial curve, poor fit]	
CNS(=O)(=O)c1ccc(NC(=O)Nc2ccc3c(c2)OCO3)cc1	-32.7	29.1 µM [falling, single point]	29.1 µM [rising, single point]
CCOCCn1ccc2c(OCC(=O)Nc3cc(OC)ccc3OC)cccc2c1=O	40.1	4.11 µM [rising, partial curve, poor fit]	
CN1CCN(C(=O)c2ccc(OCCOc3ccccc3)cc2)CC1	13.1		29.1 µM [rising, single point]
COc1cccc(CNC(=O)C2CCN(S(=O)(=O)c3c(C)nn(C)c3C)CC2)c1	24.5		13 µM [rising, partial curve]
Cc1ccc2[nH]c(C)c(CC(=O)NCc3ccccc3)c2c1	-19.2		0.58 µM [rising, single point]
CCOC(=O)c1ccc(NC(=S)N2CCN(S(C)(=O)=O)CC2)cc1		0.116 µM [rising, full curve, poor fit]	0.164 µM [rising, full curve, poor fit]
Cc1c(NC(=O)Cc2cccs2)cccc1[N+](=O)[O-]	-12.5		
Cc1ccc(-c2nc(CNC(=O)c3cc(C)on3)cs2)cc1	-10.8		29.1 µM [falling, single point]
COc1cccc(CN2CC(C(=O)NCCC3=CCCCC3)CCC2=O)c1 (centres undefined)	-9.23		6.51 µM [rising, single point]

From PubChem BioAssay AID2685 (National Center for Advancing Translational Sciences (NCATS), 2010)
